Assay results taken from publication PMC10333884, “Large‐scale phosphomimetic screening identifies phospho‐modulated motif‐based protein interactions” (Molecular Systems Biology, 2023).
Residue numbers refer to the chain shown, from its start. Results are given in words; binding and its absence hold for the method and conditions named. In cells and extracts the contact can be indirect. Some binding calls cover weakened binding; strength is not graded here. Tags and fused reporters may be left off the sequences shown.

The chains behind the UniProt entries cited, without tags or fusion partners.
UniProt Q00610: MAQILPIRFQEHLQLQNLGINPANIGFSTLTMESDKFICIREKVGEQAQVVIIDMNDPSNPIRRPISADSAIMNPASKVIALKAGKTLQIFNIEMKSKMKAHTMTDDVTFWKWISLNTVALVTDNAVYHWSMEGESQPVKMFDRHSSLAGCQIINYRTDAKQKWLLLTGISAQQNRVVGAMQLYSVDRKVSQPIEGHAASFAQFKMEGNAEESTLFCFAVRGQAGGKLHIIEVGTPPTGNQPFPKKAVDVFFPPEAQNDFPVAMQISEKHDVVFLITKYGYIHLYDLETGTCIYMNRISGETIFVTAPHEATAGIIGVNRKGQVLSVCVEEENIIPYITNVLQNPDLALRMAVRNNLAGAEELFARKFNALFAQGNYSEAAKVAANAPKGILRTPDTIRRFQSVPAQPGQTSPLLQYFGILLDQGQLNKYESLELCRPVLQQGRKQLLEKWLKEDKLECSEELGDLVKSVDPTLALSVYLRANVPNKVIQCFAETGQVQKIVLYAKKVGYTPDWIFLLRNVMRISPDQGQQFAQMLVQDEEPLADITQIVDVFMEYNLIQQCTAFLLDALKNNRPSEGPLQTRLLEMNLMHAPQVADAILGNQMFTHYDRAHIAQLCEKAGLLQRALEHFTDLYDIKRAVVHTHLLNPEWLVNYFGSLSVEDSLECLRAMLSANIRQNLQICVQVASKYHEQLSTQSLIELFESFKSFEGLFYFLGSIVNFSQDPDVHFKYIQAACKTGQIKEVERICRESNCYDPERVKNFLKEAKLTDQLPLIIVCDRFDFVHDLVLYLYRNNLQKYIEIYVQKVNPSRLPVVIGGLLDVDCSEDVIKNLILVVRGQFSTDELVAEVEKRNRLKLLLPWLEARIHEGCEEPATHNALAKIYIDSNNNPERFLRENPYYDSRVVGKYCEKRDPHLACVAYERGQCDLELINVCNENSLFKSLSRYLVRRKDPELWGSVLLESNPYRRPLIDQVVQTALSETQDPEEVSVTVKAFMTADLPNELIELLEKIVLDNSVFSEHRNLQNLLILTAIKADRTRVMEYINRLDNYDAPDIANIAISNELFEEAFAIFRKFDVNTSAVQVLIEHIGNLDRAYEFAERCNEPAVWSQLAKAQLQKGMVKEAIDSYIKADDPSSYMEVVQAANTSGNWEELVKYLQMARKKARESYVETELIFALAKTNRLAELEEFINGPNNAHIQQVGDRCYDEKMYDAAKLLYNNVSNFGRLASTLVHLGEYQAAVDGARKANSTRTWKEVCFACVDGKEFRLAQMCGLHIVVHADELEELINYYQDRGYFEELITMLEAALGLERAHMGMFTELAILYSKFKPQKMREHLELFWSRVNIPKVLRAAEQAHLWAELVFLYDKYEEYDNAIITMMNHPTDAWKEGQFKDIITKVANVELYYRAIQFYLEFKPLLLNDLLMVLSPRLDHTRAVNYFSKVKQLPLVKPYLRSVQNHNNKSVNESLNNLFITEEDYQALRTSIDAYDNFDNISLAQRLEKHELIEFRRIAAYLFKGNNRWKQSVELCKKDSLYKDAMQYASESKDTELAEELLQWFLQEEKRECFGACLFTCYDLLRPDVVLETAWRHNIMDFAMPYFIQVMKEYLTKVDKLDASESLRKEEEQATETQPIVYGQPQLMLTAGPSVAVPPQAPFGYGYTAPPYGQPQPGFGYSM

Columns and labels:
[1] = molecular target: T1, Venus‐tagged wild‐type HURP (HURPWT) (human) (UniProt Q15398); assay: co-IP; GFP-trap of YFP/Venus-HURP from lysate of mitotic HeLa cells (thymidine, then nocodazole, shake-off); lysis 100 mM NaCl, wash 150 mM NaCl, 0.05% NP-40; blot with anti-CHC
T1 sequence: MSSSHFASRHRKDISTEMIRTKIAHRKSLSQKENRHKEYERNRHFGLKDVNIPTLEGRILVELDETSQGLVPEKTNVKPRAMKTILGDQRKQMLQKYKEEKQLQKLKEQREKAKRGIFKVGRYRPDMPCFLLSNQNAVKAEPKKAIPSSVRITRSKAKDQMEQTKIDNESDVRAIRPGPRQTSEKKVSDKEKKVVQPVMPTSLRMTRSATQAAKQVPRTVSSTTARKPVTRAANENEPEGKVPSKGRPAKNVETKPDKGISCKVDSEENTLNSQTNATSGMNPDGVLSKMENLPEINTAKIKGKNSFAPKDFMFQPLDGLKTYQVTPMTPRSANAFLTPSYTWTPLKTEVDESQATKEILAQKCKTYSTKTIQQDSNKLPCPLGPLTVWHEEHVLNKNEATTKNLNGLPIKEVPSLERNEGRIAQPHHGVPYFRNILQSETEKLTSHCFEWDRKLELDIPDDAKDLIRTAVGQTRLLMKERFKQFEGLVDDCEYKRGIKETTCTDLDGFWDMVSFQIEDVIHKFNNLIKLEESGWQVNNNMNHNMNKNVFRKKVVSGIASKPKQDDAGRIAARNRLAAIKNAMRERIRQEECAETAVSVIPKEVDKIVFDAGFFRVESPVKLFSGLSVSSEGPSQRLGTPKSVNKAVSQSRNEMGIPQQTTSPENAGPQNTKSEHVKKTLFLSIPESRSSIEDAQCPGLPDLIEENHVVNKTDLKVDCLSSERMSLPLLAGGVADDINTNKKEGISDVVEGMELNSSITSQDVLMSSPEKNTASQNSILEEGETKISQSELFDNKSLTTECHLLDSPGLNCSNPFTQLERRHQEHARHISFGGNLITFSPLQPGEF

[2] = molecular target: T2, Venus‐tagged C‐terminally truncated HURP (HURP_(ΔMUT)) (human) (UniProt Q15398); assay: as above
T2 sequence: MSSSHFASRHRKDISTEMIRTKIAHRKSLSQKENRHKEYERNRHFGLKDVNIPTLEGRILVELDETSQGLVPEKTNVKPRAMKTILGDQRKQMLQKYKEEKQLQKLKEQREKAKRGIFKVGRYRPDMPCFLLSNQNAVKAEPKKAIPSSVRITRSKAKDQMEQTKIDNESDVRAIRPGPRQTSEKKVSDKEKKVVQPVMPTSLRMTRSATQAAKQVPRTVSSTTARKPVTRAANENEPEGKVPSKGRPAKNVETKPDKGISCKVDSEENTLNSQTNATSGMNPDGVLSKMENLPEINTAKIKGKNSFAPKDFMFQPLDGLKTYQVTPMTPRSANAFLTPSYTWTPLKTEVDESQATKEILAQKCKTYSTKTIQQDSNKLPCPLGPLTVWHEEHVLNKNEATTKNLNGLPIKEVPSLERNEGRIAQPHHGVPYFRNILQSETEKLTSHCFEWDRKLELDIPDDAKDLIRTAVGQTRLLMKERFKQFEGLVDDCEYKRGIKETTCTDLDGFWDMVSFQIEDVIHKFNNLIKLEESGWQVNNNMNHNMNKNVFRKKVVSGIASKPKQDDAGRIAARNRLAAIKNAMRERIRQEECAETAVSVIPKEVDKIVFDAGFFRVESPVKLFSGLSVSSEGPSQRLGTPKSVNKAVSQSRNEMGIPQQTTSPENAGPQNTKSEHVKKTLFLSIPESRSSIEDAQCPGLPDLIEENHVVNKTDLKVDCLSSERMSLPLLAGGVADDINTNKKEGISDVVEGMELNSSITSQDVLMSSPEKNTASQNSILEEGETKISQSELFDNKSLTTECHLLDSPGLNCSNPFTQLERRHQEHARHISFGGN

[3] = molecular target: T3, Venus‐tagged S839A HURP (HURP_(S839A)) (human) (UniProt Q15398); assay: co-IP; GFP-trap of YFP/Venus-HURP from lysate of mitotic HeLa cells; the S839A HURP experiments: 50 mM NaCl in lysis and wash buffer; blot with anti-CHC 1:400
T3 sequence: T1 sequence with S839A

[4] = molecular target: T1, Venus‐tagged wild‐type HURP (HURPWT) (human); assay: as above
[5] = molecular target: T2, Venus‐tagged C‐terminally truncated HURP (HURP_(ΔMUT)) (human); assay: as above
[6] = molecular target: T1, Venus‐tagged wild‐type HURP (HURPWT) (human); assay: co-IP; as a5, but early S phase HeLa cells (collected after 24 h of 2.5 mM thymidine)

With clathrin (from UniProt Q00610 1-1675) the binding [1] was “binds”, the binding [2] was “no binding” and the binding [3] was “no binding”. For the same substance, the binding [4] was “binds”, the binding [5] was “no binding” and the binding [6] was “no binding (condition: early S phase cells)”.
